PubChem BioAssay AID686943 – Drosophila RNAi Screening Center – 2013
The screen tested about 23,000 reagents; this is a random part of those that have a named target and a result. 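Extra replicates exist only for a retested subset of genes; insulin dose and duration not given; both raised and lowered dpERK matter.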 A plus sign joins genes that one reagent is predicted to hit. Not stated in the record: the amount of reagent, the time to read-out.

Assay: 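Search across the genome for regulators of signalling from receptor tyrosine kinase to ERK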 (primary screen)
Cell system: Drosophila S2R+ haemocyte-like cells expressing YFP-tagged ERK (Rolled)
Reagents: long dsRNA against Drosophila genes
Treatment: insulin stimulation versus unstimulated cells; dose and duration not given
Measured: 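Antibody staining for doubly phosphorylated ERK divided by ERK-YFP signal, as plate z-scores, in insulin-treated and untreated cells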
Reading the numbers: replicate 1, z-score of dpERK with insulin and replicate 2, z-score of dpERK with insulin: higher = more active ERK per ERK-YFP after insulin; replicate 1, z-score of dpERK under basal conditions: higher = more basal active ERK per ERK-YFP; replicate 1, z-score of ERK-YFP with insulin: higher = more YFP-tagged ERK signal

The first 5 records, to show the layout:
| target | dsRNA | replicate 1, z-score of dpERK with insulin | replicate 2, z-score of dpERK with insulin | replicate 1, z-score of dpERK under basal conditions | replicate 1, z-score of ERK-YFP with insulin |
| --- | --- | --- | --- | --- | --- |
| lncRNA:CR42646 | DRSC04759 | 0.84 | 0.95 | -1.77 | -0.9 |
| lncRNA:CR32160 | DRSC22904 | 0.69 | 0.61 | -0.35 | -0.77 |
| CG30486 | DRSC06680 | 0.23 | -0.18 | -0.19 | -0.13 |
| CG31176 | DRSC15038 | -0.09 | -0.16 | -0.27 | -0.63 |
| CG31176 | DRSC16021 | -0.26 | 0.11 | -0.3 | -0.4 |

The listing, repeating the preview:
| target | dsRNA | replicate 1, z-score of dpERK with insulin | replicate 2, z-score of dpERK with insulin | replicate 1, z-score of dpERK under basal conditions | replicate 1, z-score of ERK-YFP with insulin |
| --- | --- | --- | --- | --- | --- |
| lncRNA:CR42646 | DRSC04759 | 0.84 | 0.95 | -1.77 | -0.9 |
| lncRNA:CR32160 | DRSC22904 | 0.69 | 0.61 | -0.35 | -0.77 |
| CG30486 | DRSC06680 | 0.23 | -0.18 | -0.19 | -0.13 |
| CG31176 | DRSC15038 | -0.09 | -0.16 | -0.27 | -0.63 |
| CG31176 | DRSC16021 | -0.26 | 0.11 | -0.3 | -0.4 |
| CG32095 | DRSC22615 | -0.08 | -1.48 | -0.21 | 0.93 |
| Khc | DRSC07448 | -0.7 | -0.43 | -0.16 | 0.57 |
| Rai1 | DRSC20157 | 0.64 | -0.12 | -0.72 | -0.2 |
| ppk24 | DRSC15093 | 7.03 | 1.14 | 1.09 | -0.08 |
| CG3702 | DRSC00628 | -0.11 | -0.41 | -0.1 | -0.04 |
| Nca | DRSC11233 | 0.8 | 0.51 | 1.14 | -0.24 |
| CG4294 | DRSC04460 | -0.24 | -0.53 | -0.19 | 1.73 |
| Ptx1 | DRSC16804 | 0.52 | 0.05 | -0.84 | -0.05 |
| Fa2h | DRSC06608 | 0.06 | 0.02 | -0.3 | 0.43 |
| Fa2h | DRSC06609 | 0.33 | -0.17 | 0.62 | 0.29 |
| Ost48 | DRSC18693 | 0.2 | 0.15 | 0 | 0.14 |
| CG14341 | DRSC00371 | 0.5 | -0.49 | -0.07 | -0.28 |
| CG7798 | DRSC07047 | 0.27 | 0.46 | -0.72 | -0.09 |
| Tektin-C | DRSC09741 | 0.42 | -0.74 | -1.03 | -4.38 |
| cysu | DRSC15902 | 0.54 | -0.06 | -1.19 | -0.2 |
| mei-P22 | DRSC11366 | -0.29 | 0.59 | -0.7 | 0.12 |
| Nepl18 | DRSC14879 | 0.48 | -0.09 | -0.87 | 0.09 |
| Ts | DRSC00795 | -0.38 | 0.35 | 0.89 | -0.55 |
| Ts | DRSC22168 | -1.12 | -1.41 | -0.33 | -0.23 |
| His1:CG33816 + His1:CG33828 + His1:CG33819 + 21 more | DRSC21266 | 0.4 | 1.94 | 2.16 | -0.59 |
| CG11836 | DRSC14396 | 0.33 | 0.51 | -0.98 | 0.82 |
| CG3650 | DRSC04401 | -0.91 | -1.03 | 0.77 | 0.19 |
| ari-2 | DRSC04672 | 2.72 | 1.04 | -0.05 | -0.35 |
| hiro | DRSC08564 | 1.04 | -0.48 | 1.45 | -0.72 |
| Dyrk3 | DRSC21055 | -0.17 | -0.12 | -0.61 | 0.18 |
| CG17163 | DRSC20901 | -0.83 | -0.7 | -0.77 | 1.45 |
| CG17684 | DRSC07724 | 0.08 | -0.08 | 0.45 | 0.25 |
| CG17684 | DRSC21166 | 0.2 | -0.03 | -0.25 | 0.27 |
| CG13928 | DRSC08397 | -1.61 | -0.12 | -0.95 | 2.44 |
| CG9839 | DRSC16574 | -0.72 | -0.39 | -0.35 | -0.22 |
| CG6337 | DRSC06977 | 1.35 | -0.26 | 0.44 | -0.37 |
| CG6337 | DRSC21870 | 0.1 | 0.31 | -0.14 | -0.92 |
| CG30380 | DRSC05069 | -0.58 | -0.05 | -0.39 | 0.03 |
| CG11560 | DRSC09843 | -0.23 | 0.71 | 0.38 | 0.2 |
| Zir | DRSC00307 | -0.34 | 1.11 | -0.61 | -0.91 |
| CG43795 | DRSC04192 | -0.45 | -0.22 | 0.11 | 0.15 |
| CG43795 | DRSC04193 | 0.53 | -0.87 | -2.44 | 0.3 |
| CG43795 | DRSC04194 | 0.17 | -0.72 | 0.18 | -0.24 |
| CG43795 | DRSC04309 | 1.15 | 0.38 | 1.31 | -0.42 |
| CG43795 | DRSC04310 | 0.15 | 1.5 | -0.13 | 0.05 |
| CG43795 | DRSC04497 | 1.1 | 0.78 | 0.34 | -0.29 |
| CG43795 | DRSC22826 | 0.26 | -0.33 | -0.03 | 0.82 |
| betaTub97EF | DRSC15666 | -0.69 | -0.66 | 1.07 | -0.87 |
| betaTub97EF | DRSC15667 | 0.38 | -0.25 | 0.35 | 0.21 |
| betaTub97EF | DRSC15668 | 0.33 | -0.1 | 0.44 | -0.02 |
| CG9483 | DRSC03226 | -0.57 | -0.16 | 0 | 1.3 |
| GstS1 | DRSC07436 | -0.03 | -0.72 | 0.68 | -0.24 |
| Uba2 | DRSC11311 | 0.09 | -0.08 | -0.98 | 0.6 |
| CG31525 | DRSC12004 | -0.54 | 0.17 | -0.51 | 0.53 |
| lncRNA:CR43435 | DRSC12414 | 0.19 | 0.35 | 0.93 | -0.22 |
| Pomp | DRSC03201 | -2.63 | -5.39 | -3.09 | 2.19 |
| CG18745 | DRSC15382 | 0.5 | 0.46 | 0.39 | 0.06 |
